Measured values: paper doi:10.1101/2021.09.27.461997
No constants are given. Whether binding was seen depends on the method and setting. For part of these data: Binding seen in cells or lysates may run through a third protein. Some binding calls cover weakened binding; strength is not graded here. For part of these data: Sequences can lack the tags named with a protein.

Key:
[1] = biological target: AtLORE-Km (kinase-mutated AtLORE, K516A in the conserved ATP binding site), full length (Arabidopsis thaliana) (UniProt O64782); test: split reporter
[2] = biological target: AtLORE-Km (kinase-mutated AtLORE, K516A in the conserved ATP binding site), full length (Arabidopsis thaliana) (UniProt O64782); test: FRET or BRET
[3] = biological target: AtLORE-ECD (apoplastic, soluble extracellular domain of AtLORE) (Arabidopsis thaliana) (UniProt O64782); test: co-IP
[4] = biological target: AtLORE-Km (kinase-mutated AtLORE, K516A in the conserved ATP binding site), full length (Arabidopsis thaliana) (UniProt O64782); test: co-IP
[5] = biological target: LIPOOLIGO…-SPECIFIC REDUCED …ON (LORE) from Arabidopsis thaliana, kinase-active, full length (Arabidopsis thaliana) (UniProt O64782); test: co-IP
[6] = biological target: AtLORE-ECD with N-terminal Twin-strep-tag, purified (Arabidopsis thaliana) (UniProt O64782); test: SEC

AtLORE-Km (kinase-mutated AtLORE, K516A in the conserved ATP binding site), full length (from UniProt O64782 22-805) (receptor)
binding [1]: binds
binding [2]: binds
binding [3]: binds weakly
binding [4]: binds

B1: LIPOOLIGO…-SPECIFIC REDUCED …ON (LORE) from Arabidopsis thaliana, kinase-active, full length (receptor, UniProt O64782 22-805)
chain: AINTSSPLSIRQTLSSPGGFYELGFFSPNNTQNQYVGIWFKKIVPRVVVWVANRDTPVTSSAANLTISSNGSLILLDGKQDVIWSTGKAFTSNKCHAELLDTGNFVVIDDVSGNKLWQSFEHLGNTMLPQSSLMYDTSNGKKRVLTTWKSNSDPSPGEFSLEITPQIPTQGLIRRGSVPYWRCGPWAKTRFSGISGIDASYVSPFSVVQDTAAGTGSFSYSTLRNYNLSYVTLTPEGKMKILWDDGNNWKLHLSLPENPCDLYGRCGPYGLCVRSDPPKCECLKGFVPKSDEEWGKGNWTSGCVRRTKLSCQAKSSMKTQGKDTDIFYRMTDVKTPDLHQFASFLNAEQCYQGCLGNCSCTAFAYISGIGCLVWNGELADTVQFLSSGEFLFIRLASSELAGSSRRKIIVGTTVSLSIFLILVFAAIMLWRYRAKQNDAWKNGFERQDVSGVNFFEMHTIRTATNNFSPSNKLGQGGFGPVYKGKLVDGKEIGVKRLASSSGQGTEEFMNEITLISKLQHRNLVRLLGYCIDGEEKLLIYEFMVNKSLDIFIFDPCLKFELDWPKRFNIIQGIARGLLYLHRDSRLRVIHRDLKVSNILLDDRMNPKISDFGLARMFQGTQYQDNTRRVVGTLGYMSPEYAWAGLFSEKSDIYSFGVLMLEIISGKRISRFIYGDESKGLLAYTWDSWCETGGSNLLDRDLTDTCQAFEVARCVQIGLLCVQHEAVDRPNTLQVLSMLTSATDLPVPKQPIFAVHTLNDMPMLQANSQDFLSVNEMTESMIQGR
binding [5]: binds

B2: AtLORE-ECD with N-terminal Twin-strep-tag, purified (domain or fragment, UniProt O64782 22-428)
chain: AINTSSPLSIRQTLSSPGGFYELGFFSPNNTQNQYVGIWFKKIVPRVVVWVANRDTPVTSSAANLTISSNGSLILLDGKQDVIWSTGKAFTSNKCHAELLDTGNFVVIDDVSGNKLWQSFEHLGNTMLPQSSLMYDTSNGKKRVLTTWKSNSDPSPGEFSLEITPQIPTQGLIRRGSVPYWRCGPWAKTRFSGISGIDASYVSPFSVVQDTAAGTGSFSYSTLRNYNLSYVTLTPEGKMKILWDDGNNWKLHLSLPENPCDLYGRCGPYGLCVRSDPPKCECLKGFVPKSDEEWGKGNWTSGCVRRTKLSCQAKSSMKTQGKDTDIFYRMTDVKTPDLHQFASFLNAEQCYQGCLGNCSCTAFAYISGIGCLVWNGELADTVQFLSSGEFLFIRLASSELAGSSRRK
binding [6]: no binding
